In PMC8269395:
No constants are given. Whether binding was seen depends on the method and setting. Binding seen in cells or lysates may run through a third protein. Some entries that bind do so weakly or less than the wild type. For some assays here: Tags and fused reporters may be left off the sequences shown.

The chains behind the UniProt entries cited, without tags or fusion partners. Where a name states a change or a piece, a line headed by the entry shows the natural chain unless it says otherwise. A line that says so, or that is headed by a name, gives the form on record, which may keep a tag or linker.
UniProt P40763: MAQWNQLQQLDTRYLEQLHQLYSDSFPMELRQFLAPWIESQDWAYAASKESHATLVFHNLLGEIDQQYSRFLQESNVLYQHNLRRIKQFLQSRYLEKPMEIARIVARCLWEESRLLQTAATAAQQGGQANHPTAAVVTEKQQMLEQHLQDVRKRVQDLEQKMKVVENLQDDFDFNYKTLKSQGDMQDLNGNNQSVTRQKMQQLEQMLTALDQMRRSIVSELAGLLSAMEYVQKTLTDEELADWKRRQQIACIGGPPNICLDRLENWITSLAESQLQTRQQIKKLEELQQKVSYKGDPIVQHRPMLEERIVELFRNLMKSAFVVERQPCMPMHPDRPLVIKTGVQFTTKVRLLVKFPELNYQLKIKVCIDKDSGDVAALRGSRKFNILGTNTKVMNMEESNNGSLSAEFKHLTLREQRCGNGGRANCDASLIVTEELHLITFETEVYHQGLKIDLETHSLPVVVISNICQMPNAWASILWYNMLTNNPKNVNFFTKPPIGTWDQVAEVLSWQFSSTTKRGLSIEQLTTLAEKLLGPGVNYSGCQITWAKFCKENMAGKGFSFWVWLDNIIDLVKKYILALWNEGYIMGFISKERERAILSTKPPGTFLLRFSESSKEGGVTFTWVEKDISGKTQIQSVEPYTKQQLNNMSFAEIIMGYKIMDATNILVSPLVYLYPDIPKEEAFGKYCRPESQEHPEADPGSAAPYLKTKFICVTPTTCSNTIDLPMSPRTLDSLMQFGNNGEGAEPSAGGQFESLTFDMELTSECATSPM
Flag-STAT3 (P40763-2, form named): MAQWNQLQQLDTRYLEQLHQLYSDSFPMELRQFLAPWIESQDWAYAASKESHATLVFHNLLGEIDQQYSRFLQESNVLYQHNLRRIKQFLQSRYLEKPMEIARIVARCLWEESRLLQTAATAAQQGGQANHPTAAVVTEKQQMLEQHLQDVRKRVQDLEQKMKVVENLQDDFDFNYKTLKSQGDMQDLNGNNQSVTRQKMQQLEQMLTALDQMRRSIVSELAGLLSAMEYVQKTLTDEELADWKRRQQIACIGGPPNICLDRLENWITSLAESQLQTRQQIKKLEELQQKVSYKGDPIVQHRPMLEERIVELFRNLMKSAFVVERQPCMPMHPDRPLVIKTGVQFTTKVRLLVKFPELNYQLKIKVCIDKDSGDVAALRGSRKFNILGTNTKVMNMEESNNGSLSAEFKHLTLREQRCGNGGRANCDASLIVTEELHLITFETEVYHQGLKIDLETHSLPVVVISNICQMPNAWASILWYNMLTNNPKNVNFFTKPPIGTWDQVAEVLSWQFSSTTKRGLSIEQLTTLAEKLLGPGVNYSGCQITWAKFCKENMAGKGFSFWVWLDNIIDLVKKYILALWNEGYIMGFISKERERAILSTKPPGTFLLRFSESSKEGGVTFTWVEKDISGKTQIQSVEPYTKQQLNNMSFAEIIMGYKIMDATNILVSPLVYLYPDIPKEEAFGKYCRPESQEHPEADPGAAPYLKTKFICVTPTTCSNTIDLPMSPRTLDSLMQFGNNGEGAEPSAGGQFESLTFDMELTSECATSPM

Assays:
[1] = molecular target: T1, HA-Emerin deletion mutant D1 (human) (UniProt P50402); test: co-IP; HeLa cells co-transfected with HA-Emerin deletion mutants (6 ug) and Flag-STAT3 (6 ug) for 24 h; lysate immunoprecipitated with anti-HA overnight at 4 C, blotted with anti-Flag
T1 sequence: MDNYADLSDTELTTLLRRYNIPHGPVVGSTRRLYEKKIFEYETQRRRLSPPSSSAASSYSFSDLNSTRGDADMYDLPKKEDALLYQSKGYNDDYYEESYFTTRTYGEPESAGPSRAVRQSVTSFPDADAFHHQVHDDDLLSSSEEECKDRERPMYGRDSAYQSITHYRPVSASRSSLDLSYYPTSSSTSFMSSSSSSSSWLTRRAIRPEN

[2] = molecular target: T2, HA-Emerin deletion mutant D4 (human) (UniProt P50402); test: as above
T2 sequence: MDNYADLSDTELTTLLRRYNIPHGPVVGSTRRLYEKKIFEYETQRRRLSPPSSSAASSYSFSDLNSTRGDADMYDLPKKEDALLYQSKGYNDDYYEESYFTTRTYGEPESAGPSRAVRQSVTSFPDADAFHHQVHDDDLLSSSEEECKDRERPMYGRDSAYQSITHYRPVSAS

[3] = molecular target: T3, HA-Emerin deletion mutant D5 (human) (UniProt P50402); test: as above
T3 sequence: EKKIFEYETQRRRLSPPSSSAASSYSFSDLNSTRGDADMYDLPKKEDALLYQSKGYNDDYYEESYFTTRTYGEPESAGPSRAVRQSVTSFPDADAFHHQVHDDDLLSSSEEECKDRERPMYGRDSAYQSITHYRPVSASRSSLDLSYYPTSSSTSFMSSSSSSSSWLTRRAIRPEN

[4] = molecular target: T4, Emerin (human (endogenous in HeLa)) (UniProt P50402); test: co-IP; endogenous proteins; confluent HeLa cells with or without IL-6 (40 ng/mL), lysed (RIPA buffer), immunoprecipitated with antibodies against emerin, blotted for STAT3 or p-STAT3
T4 sequence: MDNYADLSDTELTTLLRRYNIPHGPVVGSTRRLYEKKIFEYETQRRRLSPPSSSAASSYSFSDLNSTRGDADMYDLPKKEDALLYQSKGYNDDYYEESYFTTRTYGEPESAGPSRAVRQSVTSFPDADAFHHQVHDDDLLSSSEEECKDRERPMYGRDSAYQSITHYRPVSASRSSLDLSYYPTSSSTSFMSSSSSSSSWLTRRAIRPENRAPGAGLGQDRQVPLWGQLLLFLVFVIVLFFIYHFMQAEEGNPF

Row | Substance | binding [1] | binding [2] | binding [3] | binding [4]
1 | Flag-STAT3 (from UniProt P40763-2 1-769) | binds | binds | binds weakly | –
2 | Signal transducer and activators of transcription 3 (STAT3) (from UniProt P40763 1-770) | – | – | – | binds
3 | phosphorylated STAT3 (from UniProt P40763 1-770) | – | – | – | binds
